Experimental data published in paper PMC7428214.
Results are given in words; binding and its absence hold for the method and conditions named. In cells and extracts the contact can be indirect. Binding calls can cover weak binding; strength is not graded here.

Biological target: T1, haspin (Drosophila melanogaster (endogenous in larval salivary glands)) (UniProt P83103)
T1 sequence: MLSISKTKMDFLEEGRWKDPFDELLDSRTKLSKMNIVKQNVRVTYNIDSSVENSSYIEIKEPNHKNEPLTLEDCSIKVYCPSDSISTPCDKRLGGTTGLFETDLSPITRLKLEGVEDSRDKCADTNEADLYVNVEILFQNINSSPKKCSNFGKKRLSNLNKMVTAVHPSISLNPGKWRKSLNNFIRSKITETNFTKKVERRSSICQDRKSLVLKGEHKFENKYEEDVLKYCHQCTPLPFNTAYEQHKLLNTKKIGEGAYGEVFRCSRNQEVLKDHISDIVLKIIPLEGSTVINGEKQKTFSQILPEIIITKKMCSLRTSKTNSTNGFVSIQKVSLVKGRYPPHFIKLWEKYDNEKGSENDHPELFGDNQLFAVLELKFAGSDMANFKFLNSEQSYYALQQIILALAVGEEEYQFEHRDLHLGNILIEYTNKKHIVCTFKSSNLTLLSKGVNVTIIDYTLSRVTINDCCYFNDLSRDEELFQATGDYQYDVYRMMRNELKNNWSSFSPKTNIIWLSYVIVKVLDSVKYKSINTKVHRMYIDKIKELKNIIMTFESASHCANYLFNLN
Test: co-IP; immunoprecipitation with anti-haspin antibodies from Drosophila larval salivary gland (nuclear) extracts; lysis in 0.5% NP40, 300mM NaCl, 50mM Tris pH8, 5mM EDTA, protease inhibitors; incubation at 4°C; Protein A/G Agarose; Western blot (anti-Flag or anti-myc)

binding | Substance
binds | Pds5-HA-Flag (Drosophila melanogaster)
binds | Rad21-myc (Drosophila melanogaster)
